The target of experiment [1] is mRuby2-tagged ITGB1 wild-type (integrin β1) (UniProt P05556). In words: FRET or BRET; intermolecular frequency-domain FLIM–FRET in MM231 shβ1 cells stably re-expressing ITGB1(WT or YYFF)–mRuby2 (acceptor), transfected with a Clover- or GFP-tagged donor; apparent FRET efficiency per cell; for the PTPs and Clover alone with or without VO4^3− (100 μM, 2 h). In general terms: Bioluminescence resonance energy transfer reports proximity on the nanometre scale.

By UniProt entry, the sequences of proteins in these tests, tags left out.
UniProt P05556: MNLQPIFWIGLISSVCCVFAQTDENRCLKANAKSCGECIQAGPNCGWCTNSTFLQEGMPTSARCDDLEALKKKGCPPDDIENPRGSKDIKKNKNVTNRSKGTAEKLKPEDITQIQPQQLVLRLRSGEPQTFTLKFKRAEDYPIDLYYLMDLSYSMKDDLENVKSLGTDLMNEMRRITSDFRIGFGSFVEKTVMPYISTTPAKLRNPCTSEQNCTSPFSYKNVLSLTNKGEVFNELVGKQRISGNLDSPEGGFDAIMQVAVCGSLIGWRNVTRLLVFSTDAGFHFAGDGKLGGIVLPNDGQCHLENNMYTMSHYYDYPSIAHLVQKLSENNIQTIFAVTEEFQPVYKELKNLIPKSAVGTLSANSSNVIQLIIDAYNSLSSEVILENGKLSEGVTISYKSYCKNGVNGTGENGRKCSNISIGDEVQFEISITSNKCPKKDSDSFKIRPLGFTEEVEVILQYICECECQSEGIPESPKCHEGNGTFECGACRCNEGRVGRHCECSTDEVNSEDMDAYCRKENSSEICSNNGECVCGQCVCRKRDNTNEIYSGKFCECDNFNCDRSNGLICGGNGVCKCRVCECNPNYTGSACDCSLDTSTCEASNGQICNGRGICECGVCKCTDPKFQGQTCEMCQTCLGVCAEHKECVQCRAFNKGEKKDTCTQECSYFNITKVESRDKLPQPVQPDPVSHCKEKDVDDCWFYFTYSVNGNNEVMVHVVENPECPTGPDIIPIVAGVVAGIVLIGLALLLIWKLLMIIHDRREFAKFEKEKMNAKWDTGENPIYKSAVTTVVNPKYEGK
UniProt Q14247: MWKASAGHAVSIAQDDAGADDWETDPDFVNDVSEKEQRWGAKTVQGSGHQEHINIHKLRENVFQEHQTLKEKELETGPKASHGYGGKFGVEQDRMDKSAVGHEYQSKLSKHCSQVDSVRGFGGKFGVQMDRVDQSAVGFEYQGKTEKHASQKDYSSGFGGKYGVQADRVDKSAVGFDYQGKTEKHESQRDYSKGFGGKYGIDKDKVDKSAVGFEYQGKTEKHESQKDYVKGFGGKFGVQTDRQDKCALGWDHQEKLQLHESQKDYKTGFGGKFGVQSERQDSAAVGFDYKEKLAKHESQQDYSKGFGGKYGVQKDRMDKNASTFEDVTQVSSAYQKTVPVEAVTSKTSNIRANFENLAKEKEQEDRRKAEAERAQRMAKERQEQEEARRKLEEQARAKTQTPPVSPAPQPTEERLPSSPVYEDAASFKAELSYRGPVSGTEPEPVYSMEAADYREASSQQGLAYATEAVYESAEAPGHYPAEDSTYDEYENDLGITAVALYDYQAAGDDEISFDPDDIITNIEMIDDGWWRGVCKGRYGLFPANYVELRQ

In experiment [2] the target is ITGB1-V1/Dok1-V2 complex (restored Venus) (UniProt P05556). Description: co-IP; BiCAP immunoblot: GFP-trap IP of the ITGB1-V1/Dok1-V2 complex (Venus alone as control) from MM231 and HEK293T cells, blots for annexin A6, VPS35 and Cofilin. A general note: In western blotting, separated proteins are transferred to a membrane and probed.
The target is the same in experiment [3]. Description: FRET or BRET; BiFC–FLIM–FRET in MM231 cells: restored Venus of ITGB1-V1/Dok1-V2 as donor, RFP- or mScarlet-tagged protein as acceptor; Venus alone as control.
The target of experiment [4] is T1, mScarlet–TKS5 (UniProt Q5TCZ1).
T1 sequence: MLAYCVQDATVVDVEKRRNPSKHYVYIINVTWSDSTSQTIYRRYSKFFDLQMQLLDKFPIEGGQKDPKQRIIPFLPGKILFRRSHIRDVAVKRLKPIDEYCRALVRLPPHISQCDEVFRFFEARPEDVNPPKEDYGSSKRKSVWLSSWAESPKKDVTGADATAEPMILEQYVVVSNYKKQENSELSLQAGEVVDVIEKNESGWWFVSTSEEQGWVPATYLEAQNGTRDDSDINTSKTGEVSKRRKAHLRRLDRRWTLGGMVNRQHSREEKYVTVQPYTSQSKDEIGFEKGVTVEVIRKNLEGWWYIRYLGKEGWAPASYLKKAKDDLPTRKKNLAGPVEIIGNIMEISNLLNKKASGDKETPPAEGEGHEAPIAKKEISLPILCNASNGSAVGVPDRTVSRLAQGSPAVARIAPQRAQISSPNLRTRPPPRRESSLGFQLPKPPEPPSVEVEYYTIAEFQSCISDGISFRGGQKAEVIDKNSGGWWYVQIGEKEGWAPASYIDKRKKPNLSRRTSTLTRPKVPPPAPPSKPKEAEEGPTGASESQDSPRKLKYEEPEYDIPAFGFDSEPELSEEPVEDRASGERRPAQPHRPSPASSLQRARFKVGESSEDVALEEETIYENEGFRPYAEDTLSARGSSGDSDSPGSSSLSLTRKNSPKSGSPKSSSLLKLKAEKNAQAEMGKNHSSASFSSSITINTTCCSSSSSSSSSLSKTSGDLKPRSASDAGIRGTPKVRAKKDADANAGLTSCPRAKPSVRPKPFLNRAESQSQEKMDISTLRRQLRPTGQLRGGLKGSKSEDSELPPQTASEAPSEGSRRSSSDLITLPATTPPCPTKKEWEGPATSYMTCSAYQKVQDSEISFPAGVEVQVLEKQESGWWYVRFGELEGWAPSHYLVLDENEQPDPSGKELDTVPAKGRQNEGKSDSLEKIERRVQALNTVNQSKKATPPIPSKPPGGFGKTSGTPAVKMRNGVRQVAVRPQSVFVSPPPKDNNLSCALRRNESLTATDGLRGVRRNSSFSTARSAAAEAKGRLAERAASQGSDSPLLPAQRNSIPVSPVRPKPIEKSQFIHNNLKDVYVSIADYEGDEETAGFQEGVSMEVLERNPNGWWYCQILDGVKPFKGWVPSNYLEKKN
In words: FRET or BRET; intermolecular FLIM–FRET of tagged protein pairs (Clover or mEmerald donor, mRFP or mScarlet acceptor); mScarlet alone with the donor-tagged protein as negative control.

For experiment [5], the target named is ITGB1-V1 (UniProt P05556). In words: split reporter; BiCAP: Venus halves V1 (on ITGB1) and V2 (on Dok1) complement in transfected cells; the restored Venus is captured on GFP-trap beads and both proteins are found (immunoblot, mass spectrometry).
In experiment [6] the target is CTTN–mEmerald (UniProt Q14247). In words: FRET or BRET; intermolecular FLIM–FRET of tagged protein pairs (Clover or mEmerald donor, mRFP or mScarlet acceptor); mScarlet alone with the donor-tagged protein as negative control.

These are yes or no findings as the source states them, for the method shown. In cells and extracts the contact can be indirect. Some binding calls cover weakened binding; strength is not graded here. For some of these results: Sequences can lack the tags named with a protein.

B1: PTP-PEST-Clover (enzyme, UniProt Q05209 1-780)
chain: MEQVEILRKFIQRVQAMKSPDHNGEDNFARDFMRLRRLSTKYRTEKIYPTATGEKEENVKKNRYKDILPFDHSRVKLTLKTPSQDSDYINANFIKGVYGPKAYVATQGPLANTVIDFWRMIWEYNVVIIVMACREFEMGRKKCERYWPLYGEDPITFAPFKISCEDEQARTDYFIRTLLLEFQNESRRLYQFHYVNWPDHDVPSSFDSILDMISLMRKYQEHEDVPICIHCSAGCGRTGAICAIDYTWNLLKAGKIPEEFNVFNLIQEMRTQRHSAVQTKEQYELVHRAIAQLFEKQLQLYEIHGAQKIADGVNEINTENMVSSIEPEKQDSPPPKPPRTRSCLVEGDAKEEILQPPEPHPVPPILTPSPPSAFPTVTTVWQDNDRYHPKPVLHMVSSEQHSADLNRNYSKSTELPGKNESTIEQIDKKLERNLSFEIKKVPLQEGPKSFDGNTLLNRGHAIKIKSASPCIADKISKPQELSSDLNVGDTSQNSCVDCSVTQSNKVSVTPPEESQNSDTPPRPDRLPLDEKGHVTWSFHGPENAIPIPDLSEGNSSDINYQTRKTVSLTPSPTTQVETPDLVDHDNTSPLFRTPLSFTNPLHSDDSDSDERNSDGAVTQNKTNISTASATVSAATSTESISTRKVLPMSIARHNIAGTTHSGAEKDVDVSEDSPPPLPERTPESFVLASEHNTPVRSEWSELQSQERSEQKKSEGLITSENEKCDHPAGGIHYEMCIECPPTFSDKREQISENPTEATDIGFGNRCGKPKGPRDPPSEWT
B1: the binding result in experiment [1] is listed as “binds”.

B2: annexin A6 (co-precipitated from cell lysate) (protein, UniProt P08133 1-673)
chain: MAKPAQGAKYRGSIHDFPGFDPNQDAEALYTAMKGFGSDKEAILDIITSRSNRQRQEVCQSYKSLYGKDLIADLKYELTGKFERLIVGLMRPPAYCDAKEIKDAISGIGTDEKCLIEILASRTNEQMHQLVAAYKDAYERDLEADIIGDTSGHFQKMLVVLLQGTREEDDVVSEDLVQQDVQDLYEAGELKWGTDEAQFIYILGNRSKQHLRLVFDEYLKTTGKPIEASIRGELSGDFEKLMLAVVKCIRSTPEYFAERLFKAMKGLGTRDNTLIRIMVSRSELDMLDIREIFRTKYEKSLYSMIKNDTSGEYKKTLLKLSGGDDDAAGQFFPEAAQVAYQMWELSAVARVELKGTVRPANDFNPDADAKALRKAMKGLGTDEDTIIDIITHRSNVQRQQIRQTFKSHFGRDLMTDLKSEISGDLARLILGLMMPPAHYDAKQLKKAMEGAGTDEKALIEILATRTNAEIRAINEAYKEDYHKSLEDALSSDTSGHFRRILISLATGHREEGGENLDQAREDAQVAAEILEIADTPSGDKTSLETRFMTILCTRSYPHLRRVFQEFIKMTNYDVEHTIKKEMSGDVRDAFVAIVQSVKNKPLFFADKLYKSMKGAGTDEKTLTRIMVSRSEIDLLNIRREFIEKYDKSLHQAIEGDTSGDFLKALLALCGGED
Consider B2, for which the binding result in experiment [2] is listed as “binds”.

B3: mScarlet-tagged Annexin A6 (protein, UniProt P08133 1-673)
chain: MAKPAQGAKYRGSIHDFPGFDPNQDAEALYTAMKGFGSDKEAILDIITSRSNRQRQEVCQSYKSLYGKDLIADLKYELTGKFERLIVGLMRPPAYCDAKEIKDAISGIGTDEKCLIEILASRTNEQMHQLVAAYKDAYERDLEADIIGDTSGHFQKMLVVLLQGTREEDDVVSEDLVQQDVQDLYEAGELKWGTDEAQFIYILGNRSKQHLRLVFDEYLKTTGKPIEASIRGELSGDFEKLMLAVVKCIRSTPEYFAERLFKAMKGLGTRDNTLIRIMVSRSELDMLDIREIFRTKYEKSLYSMIKNDTSGEYKKTLLKLSGGDDDAAGQFFPEAAQVAYQMWELSAVARVELKGTVRPANDFNPDADAKALRKAMKGLGTDEDTIIDIITHRSNVQRQQIRQTFKSHFGRDLMTDLKSEISGDLARLILGLMMPPAHYDAKQLKKAMEGAGTDEKALIEILATRTNAEIRAINEAYKEDYHKSLEDALSSDTSGHFRRILISLATGHREEGGENLDQAREDAQVAAEILEIADTPSGDKTSLETRFMTILCTRSYPHLRRVFQEFIKMTNYDVEHTIKKEMSGDVRDAFVAIVQSVKNKPLFFADKLYKSMKGAGTDEKTLTRIMVSRSEIDLLNIRREFIEKYDKSLHQAIEGDTSGDFLKALLALCGGED
Take B3: the binding entry in experiment [3] was “binds”.

B4: Dok1–Clover (protein, UniProt Q99704 1-481)
chain: MDGAVMEGPLFLQSQRFGTKRWRKTWAVLYPASPHGVARLEFFDHKGSSSGGGRGSSRRLDCKVIRLAECVSVAPVTVETPPEPGATAFRLDTAQRSHLLAADAPSSAAWVQTLCRNAFPKGSWTLAPTDNPPKLSALEMLENSLYSPTWEGSQFWVTVQRTEAAERCGLHGSYVLRVEAERLTLLTVGAQSQILEPLLSWPYTLLRRYGRDKVMFSFEAGRRCPSGPGTFTFQTAQGNDIFQAVETAIHRQKAQGKAGQGHDVLRADSHEGEVAEGKLPSPPGPQELLDSPPALYAEPLDSLRIAPCPSQDSLYSDPLDSTSAQAGEGVQRKKPLYWDLYEHAQQQLLKAKLTDPKEDPIYDEPEGLAPVPPQGLYDLPREPKDAWWCQARVKEEGYELPYNPATDDYAVPPPRSTKPLLAPKPQGPAFPEPGTATGSGIKSHNSALYSQVQKSGASGSWDCGLSRVGTDKTGVKSEGST
For the molecule B4, the binding entry in experiment [4] and in experiment [1] was “binds” in each case.

B5: Dok1-V2 (protein, UniProt Q99704 1-481)
chain: MDGAVMEGPLFLQSQRFGTKRWRKTWAVLYPASPHGVARLEFFDHKGSSSGGGRGSSRRLDCKVIRLAECVSVAPVTVETPPEPGATAFRLDTAQRSHLLAADAPSSAAWVQTLCRNAFPKGSWTLAPTDNPPKLSALEMLENSLYSPTWEGSQFWVTVQRTEAAERCGLHGSYVLRVEAERLTLLTVGAQSQILEPLLSWPYTLLRRYGRDKVMFSFEAGRRCPSGPGTFTFQTAQGNDIFQAVETAIHRQKAQGKAGQGHDVLRADSHEGEVAEGKLPSPPGPQELLDSPPALYAEPLDSLRIAPCPSQDSLYSDPLDSTSAQAGEGVQRKKPLYWDLYEHAQQQLLKAKLTDPKEDPIYDEPEGLAPVPPQGLYDLPREPKDAWWCQARVKEEGYELPYNPATDDYAVPPPRSTKPLLAPKPQGPAFPEPGTATGSGIKSHNSALYSQVQKSGASGSWDCGLSRVGTDKTGVKSEGST
For the molecule B5, the binding entry in experiment [5] is recorded as “binds”.

B6: Dok1–mScarlet (protein, UniProt Q99704 1-481)
chain: MDGAVMEGPLFLQSQRFGTKRWRKTWAVLYPASPHGVARLEFFDHKGSSSGGGRGSSRRLDCKVIRLAECVSVAPVTVETPPEPGATAFRLDTAQRSHLLAADAPSSAAWVQTLCRNAFPKGSWTLAPTDNPPKLSALEMLENSLYSPTWEGSQFWVTVQRTEAAERCGLHGSYVLRVEAERLTLLTVGAQSQILEPLLSWPYTLLRRYGRDKVMFSFEAGRRCPSGPGTFTFQTAQGNDIFQAVETAIHRQKAQGKAGQGHDVLRADSHEGEVAEGKLPSPPGPQELLDSPPALYAEPLDSLRIAPCPSQDSLYSDPLDSTSAQAGEGVQRKKPLYWDLYEHAQQQLLKAKLTDPKEDPIYDEPEGLAPVPPQGLYDLPREPKDAWWCQARVKEEGYELPYNPATDDYAVPPPRSTKPLLAPKPQGPAFPEPGTATGSGIKSHNSALYSQVQKSGASGSWDCGLSRVGTDKTGVKSEGST
Take B6: in experiment [6], the binding entry was “binds”.

For the origin of these results see publication PMC12173946.
